For 1 compound, IC50 results are on record in patent publication EP1493438A1, “Vanilloid receptor (VR) inhibitors for treatment of Human Immunodeficiency Virus (HIV)-mediated pain states” (Bayer HealthCare AG, priority 2003, dated 2005).

The term IC50 denotes the concentration that gives 50% inhibition. A low value points to inhibition by little substance.

The test relates to rat DRG neurons. Nature of the test: Inhibition of gp120-mediated CGRP-release from rat DRG neurons (Method B). The settings on record: DRG neuron.

Compound `C[S+]([O-])c1ccc(-c2nc(-c3ccncc3)c(-c3ccc(F)cc3)[nH]2)cc1` (stereo not shown) [SB203580] came in with an IC50 of 2.89 nM.
